PubChem BioAssay AID652272 – Drosophila RNAi Screening Center, 2013
The screen tested about 21,000 reagents; shown is an unselected part of those with a known target gene and a result. Of all reagents, 503 (2.4%) are marked active. 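Raw plate light values, not normalised; calls rest on replicate z-scores that were not deposited; hits include reporter decreases as well as increases.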 Unmarked entries are inactive. Reagents against one gene are numbered here. The record does not give: the amount of reagent, the time to read-out.

- Purpose: 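Genes whose knock-down decreases or increases Hedgehog reporter output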 (primary screen)
- Cells: Drosophila clone 8 (Cl8) cells
- Knock-down reagent: long dsRNA against Drosophila genes
- Read-out: 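Plate reader light from a firefly reporter under a ptc promoter fragment that responds to Hedgehog, with Renilla light as transfection reference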
- Scale: firefly Hh reporter signal: higher = more ptc reporter light; Renilla reference signal: higher = more Renilla control light
- Call rule: 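Called a hit if the two-replicate mean z-score lies below -2 or above +3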
- Meaning of the calls: active = hit: reporter lowered or raised; inactive = not a hit

After knock-down of CG10222 the results were firefly Hh reporter signal, replicate 1 = 50416; firefly Hh reporter signal, replicate 2 = 71271; firefly Hh reporter signal, replicate 3 = 84546; Renilla reference signal, replicate 1 = 5738; Renilla reference signal, replicate 2 = 5184.
With knock-down of Cht6 (Chitinase 6) #1, the screen gave firefly Hh reporter signal, replicate 1 = 71490; firefly Hh reporter signal, replicate 2 = 1.37e5; Renilla reference signal, replicate 1 = 1848; Renilla reference signal, replicate 2 = 5347.
Silencing of Cht6 (Chitinase 6) #2 came out at: firefly Hh reporter signal, replicate 1 = 41336; firefly Hh reporter signal, replicate 2 = 58864; Renilla reference signal, replicate 1 = 788; Renilla reference signal, replicate 2 = 2677.
Against Cht6 (Chitinase 6) #3, the values are firefly Hh reporter signal, replicate 1 = 89845; firefly Hh reporter signal, replicate 2 = 2.94e5; Renilla reference signal, replicate 1 = 2571; Renilla reference signal, replicate 2 = 12018.
With knock-down of CG7785, the record shows firefly Hh reporter signal, replicate 1 = 4.95e5; firefly Hh reporter signal, replicate 2 = 65213; Renilla reference signal, replicate 1 = 25837; Renilla reference signal, replicate 2 = 1860.
Depletion of Trm7-32 (tRNA methyltransferase 7-32) resulted in: firefly Hh reporter signal, replicate 1 = 1.21e5; firefly Hh reporter signal, replicate 2 = 90360; Renilla reference signal, replicate 1 = 4896; Renilla reference signal, replicate 2 = 4145.
Against Cyp4d14 (Cytochrome P450 4d14) the deposit lists firefly Hh reporter signal, replicate 1 = 97552; firefly Hh reporter signal, replicate 2 = 2.78e5; Renilla reference signal, replicate 1 = 3801; Renilla reference signal, replicate 2 = 10121.
With knock-down of CG1792, the record shows firefly Hh reporter signal, replicate 1 = 84775; firefly Hh reporter signal, replicate 2 = 1.43e5; Renilla reference signal, replicate 1 = 2896; Renilla reference signal, replicate 2 = 5936.
After knock-down of Os-C, the record shows firefly Hh reporter signal, replicate 1 = 1.04e5; firefly Hh reporter signal, replicate 2 = 1.91e5; Renilla reference signal, replicate 1 = 3888; Renilla reference signal, replicate 2 = 10281.
After knock-down of kni (knirps), the record shows firefly Hh reporter signal, replicate 1 = 89307; firefly Hh reporter signal, replicate 2 = 78490; Renilla reference signal, replicate 1 = 2967; Renilla reference signal, replicate 2 = 2261.
Depletion of GstD7 (Glutathione S transferase D7) resulted in: firefly Hh reporter signal, replicate 1 = 1.63e5; firefly Hh reporter signal, replicate 2 = 1.88e5; Renilla reference signal, replicate 1 = 5608; Renilla reference signal, replicate 2 = 5629.

A few values from the list:
Cht6 (Chitinase 6) #1, Renilla reference signal, replicate 2: 5347
For “Renilla reference signal, replicate 1”, Os-C shows 3888
Under “Renilla reference signal, replicate 1”, CG10222 shows 5738

Next records follow:
Arms (Ankyrin repeat-rich membrane spanning) #1 scored firefly Hh reporter signal, replicate 1 = 6.33e5; firefly Hh reporter signal, replicate 2 = 1.55e5; firefly Hh reporter signal, replicate 3 = 1.01e5; Renilla reference signal, replicate 1 = 4507; Renilla reference signal, replicate 2 = 5088.
After knock-down of Arms (Ankyrin repeat-rich membrane spanning) #2, the record shows firefly Hh reporter signal, replicate 1 = 1.15e5; firefly Hh reporter signal, replicate 2 = 1.84e5; Renilla reference signal, replicate 1 = 3464; Renilla reference signal, replicate 2 = 8521.
Against Arms (Ankyrin repeat-rich membrane spanning) #3, the entry reads firefly Hh reporter signal, replicate 1 = 1.30e5; firefly Hh reporter signal, replicate 2 = 69396; Renilla reference signal, replicate 1 = 4520; Renilla reference signal, replicate 2 = 2944.
With knock-down of Arms (Ankyrin repeat-rich membrane spanning) #4 the results were firefly Hh reporter signal, replicate 1 = 1.03e5; firefly Hh reporter signal, replicate 2 = 53809; Renilla reference signal, replicate 1 = 2673; Renilla reference signal, replicate 2 = 4166.
After knock-down of CG13332, the screen gave firefly Hh reporter signal, replicate 1 = 1.13e5; firefly Hh reporter signal, replicate 2 = 87335; Renilla reference signal, replicate 1 = 2810; Renilla reference signal, replicate 2 = 7080.
After knock-down of Cdk2 (Cyclin-dependent kinase 2), the screen gave firefly Hh reporter signal, replicate 1 = 1.45e5; firefly Hh reporter signal, replicate 2 = 78965; Renilla reference signal, replicate 1 = 6184; Renilla reference signal, replicate 2 = 3429.
Silencing of Hr83 (Hormone receptor 83) resulted in: firefly Hh reporter signal, replicate 1 = 64004; firefly Hh reporter signal, replicate 2 = 85879; Renilla reference signal, replicate 1 = 2112; Renilla reference signal, replicate 2 = 2464.
Against CG6729, the values are firefly Hh reporter signal, replicate 1 = 1.75e5; firefly Hh reporter signal, replicate 2 = 7.90e5; firefly Hh reporter signal, replicate 3 = 1.48e5; Renilla reference signal, replicate 1 = 6509; Renilla reference signal, replicate 2 = 39960.
With knock-down of Jon65Ai (Jonah 65Ai), the record shows firefly Hh reporter signal, replicate 1 = 63344; firefly Hh reporter signal, replicate 2 = 73912; Renilla reference signal, replicate 1 = 7498; Renilla reference signal, replicate 2 = 5833.
Depletion of milt (milton) #1 gave: firefly Hh reporter signal, replicate 1 = 4.92e5; firefly Hh reporter signal, replicate 2 = 1.12e5; Renilla reference signal, replicate 1 = 24984; Renilla reference signal, replicate 2 = 4789.
milt (milton) #2 scored firefly Hh reporter signal, replicate 1 = 7.01e5; firefly Hh reporter signal, replicate 2 = 1.34e5; Renilla reference signal, replicate 1 = 34000; Renilla reference signal, replicate 2 = 6115.
Silencing of milt (milton) #3 resulted in: firefly Hh reporter signal, replicate 1 = 1.13e5; firefly Hh reporter signal, replicate 2 = 1.28e5; Renilla reference signal, replicate 1 = 4850; Renilla reference signal, replicate 2 = 5968.
Alas (Aminolevulinate synthase) showed firefly Hh reporter signal, replicate 1 = 65552; firefly Hh reporter signal, replicate 2 = 56208; Renilla reference signal, replicate 1 = 2707; Renilla reference signal, replicate 2 = 2219.
After knock-down of CG34106 the results were firefly Hh reporter signal, replicate 1 = 1.34e5; firefly Hh reporter signal, replicate 2 = 3.12e5; Renilla reference signal, replicate 1 = 3522; Renilla reference signal, replicate 2 = 12940.
Taf6 (TBP-associated factor 6) scored firefly Hh reporter signal, replicate 1 = 67467; firefly Hh reporter signal, replicate 2 = 48147; Renilla reference signal, replicate 1 = 2498; Renilla reference signal, replicate 2 = 1652.
With knock-down of Fbxl4 (F box and leucine-rich-repeat gene 4), the record shows firefly Hh reporter signal, replicate 1 = 1.41e5; firefly Hh reporter signal, replicate 2 = 68135; Renilla reference signal, replicate 1 = 3094; Renilla reference signal, replicate 2 = 1922.
